These are yes or no findings as the source states them, for the method shown. In cells and extracts the contact can be indirect. These calls come from enrichment with a bait or labelling near it, and not all partners need be listed.

Sequences of proteins named here, by UniProt entry; tags and fusion partners are left off.
UniProt Q86TM6: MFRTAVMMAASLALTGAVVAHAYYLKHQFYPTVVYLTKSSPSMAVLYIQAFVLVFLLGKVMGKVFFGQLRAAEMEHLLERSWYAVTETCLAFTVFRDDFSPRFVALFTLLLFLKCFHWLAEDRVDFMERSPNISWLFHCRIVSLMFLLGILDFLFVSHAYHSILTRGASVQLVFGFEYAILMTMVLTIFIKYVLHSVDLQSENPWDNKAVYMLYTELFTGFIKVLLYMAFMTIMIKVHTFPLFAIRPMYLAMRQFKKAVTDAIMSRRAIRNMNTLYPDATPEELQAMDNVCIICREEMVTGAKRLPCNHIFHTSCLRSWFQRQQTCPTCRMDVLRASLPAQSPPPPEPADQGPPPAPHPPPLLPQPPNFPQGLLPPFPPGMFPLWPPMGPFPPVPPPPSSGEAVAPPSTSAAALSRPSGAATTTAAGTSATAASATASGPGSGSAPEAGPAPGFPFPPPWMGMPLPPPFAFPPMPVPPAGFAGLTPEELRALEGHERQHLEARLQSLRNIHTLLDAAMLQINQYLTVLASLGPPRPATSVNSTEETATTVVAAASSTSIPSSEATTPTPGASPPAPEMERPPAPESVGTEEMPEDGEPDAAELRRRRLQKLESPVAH
UniProt P08670: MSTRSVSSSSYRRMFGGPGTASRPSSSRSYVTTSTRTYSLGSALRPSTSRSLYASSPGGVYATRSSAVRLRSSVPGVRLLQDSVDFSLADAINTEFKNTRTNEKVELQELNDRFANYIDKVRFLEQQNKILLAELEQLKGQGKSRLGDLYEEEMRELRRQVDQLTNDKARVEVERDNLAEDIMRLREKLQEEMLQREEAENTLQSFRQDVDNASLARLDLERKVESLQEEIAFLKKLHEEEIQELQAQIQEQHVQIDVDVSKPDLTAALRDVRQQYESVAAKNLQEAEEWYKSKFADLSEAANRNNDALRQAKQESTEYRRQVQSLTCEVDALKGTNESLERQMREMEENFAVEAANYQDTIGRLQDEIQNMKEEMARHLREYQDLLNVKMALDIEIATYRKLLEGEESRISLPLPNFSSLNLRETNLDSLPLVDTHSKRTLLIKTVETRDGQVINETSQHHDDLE

The results in this text go back to publication PMC7851937.

The test deals with HRD1 stably overexpressed in MDA-MB-231 cells (human) (UniProt Q86TM6). Put plainly: affinity purification with mass spectrometry; IP with anti-HRD1 (rabbit normal IgG as control) overnight at 4 °C from NP-40 lysates of MDA-MB-231 cells stably overexpressing HRD1, MG132 10 μM for 6 h; SDS-PAGE, LC-MS, iBAQ.

For “Vimentin (endogenous, MDA-MB-231) (from UniProt P08670 1-466)”, the binding result is recorded as “binds”.
